Assay results reported in patent US12290521B2, “Methods and materials for identifying and treating BET inhibitor-resistant cancers” (Mayo Foundation for Medical Education and Research, priority 2018, dated 2025).

Tested on: DU145 cells
Test: Cell proliferation (MTS assay)
Format: cell-based, human
Details: DUB3-overexpressing DU145 cells; I-BET 5 μM
Experimental: Cell proliferation was measured by using the MTS assay (Promega). Prostate cancer cells (2,000 per well) were seeded in 96-well plates with 100 μL of culture medium. Each well was added with 20 μL of CellTiter 96R AQueous One Solution Reagent (Promega) and absorbance was measured in a microplate reader at 490 nm.
DU145 prostate cancer cells were infected with empty vector (EV) or SPOP F133V mutant lentivirus and selected with purimycin for 48 hours. The cells then were treated with vehicle (DMSO), a CBP/p300 inhibitor (CPI-637; iCBP; 20 μM), or a BET inhibitor (JQ1; 2 μM) alone or a combination of CPI-637 and JQ1. After 72 hours, cells were subjected to measurement of cell growth by an MTS assay. In each cell type (EV and F133V), the OD value in each group was normalized by the value in the control (vehicle) group.

## CCNC(=O)C[C@@H]1N=C(c2ccc(Cl)cc2)c2cc(OC)ccc2-n2c(C)nnc21 [i-BET762]
  resistance of cell growth by DUB3 overexpression: conferred resistance
